Source: PubChem BioAssay AID652243 (Drosophila RNAi Screening Center, 2013)
The deposit covers about 24,000 reagents; below is a random part of those with a known target gene and a result. In the full data, 246 (1%) are marked active. 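Plates not normalised; calls are printed but the firefly/Renilla ratio behind them is not deposited; fold cut for lowering reported inconsistently.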 Raw values are not corrected between plates. Names joined by + are all predicted targets of the reagent. No sequences are given here. Not given: the amount of reagent.

Screen: 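Fly genes required for human androgen receptor driven transcription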 (primary screen)
Cell system: Drosophila S2R+ cells
Knock-down reagent: long dsRNA against Drosophila genes
Timing: 72 h (48 h, then 24 h hormone)
Conditions: synthetic androgen R1881 at 10 nM for 24 h
Measured: 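Per-well raw luminescence of the androgen-driven firefly reporter and of the Renilla control, two replicates each, without normalisation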
Direction: firefly reporter light: higher = more light from androgen-responsive reporter; Renilla control light: higher = more constitutive control signal (cell number, transfection)
Call rule: 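Across duplicate plates, a knock-down whose log firefly/Renilla ratio shifted a set fold down or up from the GFP/LacZ control mean was a hit; the downward cut appears as both 1.5 and 3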
Meaning of the calls: active = hit: reporter lowered or raised; inactive = no hit

gene knocked down	dsRNA	firefly reporter light, replicate 1	firefly reporter light, replicate 2	Renilla control light, replicate 1	Renilla control light, replicate 2	call
CG31675 (GeneID 318879)	DRSC01825	1.51e5	1.73e5	5.67e5	4.24e5	inactive
CG31675 (GeneID 318879)	DRSC26340	3.52e5	2.91e5	6.49e5	6.14e5	inactive
yellow-g2 (GeneID 38295)	DRSC08338	52057	65307	8.92e5	8.40e5	inactive
CG30495 (GeneID 246651)	DRSC06703	3.20e5	3.01e5	1.82e6	8.53e5	inactive
CG30495 (GeneID 246651)	DRSC26893	2.83e5	3.09e5	5.68e5	6.46e5	inactive
CG32576 (GeneID 318095)	DRSC19136	9.85e5	7.96e5	1.45e6	1.03e6	inactive
Dhc98D (GeneID 43379)	DRSC16645	1.30e5	1.27e5	1.41e6	2.10e6	inactive
Dhc98D (GeneID 43379)	DRSC27784	2.35e5	2.41e5	4.82e5	7.16e5	inactive
Lectin-galC1 (GeneID 35216)	DRSC03362	1.22e5	1.38e5	1.26e6	1.79e6	inactive
CG6749 (GeneID 39144)	DRSC10704	2.94e5	2.07e5	2.79e6	2.28e6	inactive
sturkopf (GeneID 38150)	DRSC08637	1.11e6	7.75e5	1.48e6	9.67e5	inactive
sturkopf (GeneID 38150)	DRSC29932	2.84e5	3.06e5	1.12e6	1.01e6	inactive
CG14036 (GeneID 33735)	DRSC02361	1.54e5	1.20e5	1.16e6	9.84e5	inactive
CG15107 (GeneID 59128)	DRSC23406	6.96e5	8.19e5	7.86e5	6.34e5	inactive
CG3149 (GeneID 31489)	DRSC17732	95692	91776	7.14e5	5.69e5	inactive
CG3149 (GeneID 31489)	DRSC27511	2.67e5	2.98e5	4.67e5	8.60e5	inactive
His2B:CG33894 + His2B:CG33872 + His2B:CG33902 + 20 more	DRSC21265	1.04e5	1.21e5	90491	81099	inactive
Dci (GeneID 38100)	DRSC08360	5.57e5	5.71e5	2.43e6	2.92e6	inactive
Dci (GeneID 38100)	DRSC28929	4.05e5	4.51e5	1.07e6	8.76e5	inactive
His1:CG33816 + His1:CG33828 + His1:CG33819 + 21 more	DRSC21266	2.41e5	2.23e5	4.22e5	3.56e5	inactive
Mal-A8 (GeneID 35830)	DRSC07234	2.39e5	2.26e5	1.30e6	1.50e6	inactive
CG3513 (GeneID 33590)	DRSC00608	1.81e5	80625	1.08e6	1.10e6	inactive
how (GeneID 42596)	DRSC25008	2.83e5	2.67e5	4.70e5	4.38e5	inactive
Prosalpha2 (GeneID 41531)	DRSC16798	1.34e5	99762	2.22e6	8.94e5	inactive
Prosalpha2 (GeneID 41531)	DRSC28078	3.64e5	4.31e5	4.96e5	6.45e5	inactive

Taken from above:
CG14036 (GeneID 33735) [DRSC02361], Renilla control light, replicate 2 = 9.84e5
Under “firefly reporter light, replicate 1”, CG3513 (GeneID 33590) [DRSC00608] has 1.81e5
Entry of CG32576 (GeneID 318095) [DRSC19136] in “Renilla control light, replicate 2”: 1.03e6
Value of sturkopf (GeneID 38150) [DRSC29932] under “call”: inactive
Result of yellow-g2 (GeneID 38295) [DRSC08338] under “firefly reporter light, replicate 1”: 52057
His2B:CG33894 + His2B:CG33872 + His2B:CG33902 + 20 more [DRSC21265], Renilla control light, replicate 2: 81099

Continued.
gene knocked down	dsRNA	firefly reporter light, replicate 1	firefly reporter light, replicate 2	Renilla control light, replicate 1	Renilla control light, replicate 2	call
CG32459 (GeneID 40502)	DRSC11852	1.99e5	2.04e5	2.35e6	2.85e6	inactive
CAH3 (GeneID 31804)	DRSC17776	1.67e5	2.92e5	2.29e6	3.23e6	inactive
CG30416 (GeneID 246603)	DRSC04565	2.22e5	2.88e5	1.55e6	1.93e6	inactive
rempA (GeneID 33230)	DRSC00327	75877	1.13e5	5.18e5	7.15e5	inactive
Arl4 (GeneID 43771)	DRSC17156	2.45e5	2.53e5	2.18e6	3.27e6	inactive
DIP-beta (GeneID 33125)	DRSC20489	2.95e5	1.93e5	9.16e5	7.37e5	inactive
DIP-beta (GeneID 33125)	DRSC20490	1.96e5	1.31e5	3.89e5	2.87e5	inactive
DIP-beta (GeneID 33125)	DRSC20505	3.31e5	3.04e5	3.80e5	3.03e5	inactive
DIP-beta (GeneID 33125)	DRSC38792	4.41e5	6.03e5	1.65e6	1.64e6	inactive
CG5348 (GeneID 36877)	DRSC06933	77628	67634	1.36e6	1.36e6	inactive
CG33722 + CG18749	DRSC12674	1.98e5	89278	1.19e5	1.56e5	inactive
CG33722 + CG18749	DRSC15386	60449	74409	2.01e6	1.56e6	inactive
CG33722 + CG18749	DRSC28983	4.87e5	4.20e5	1.25e6	1.28e6	inactive
Miox (GeneID 39391)	DRSC10747	2.78e5	3.15e5	2.60e6	2.48e6	inactive
Miox (GeneID 39391)	DRSC24306	1.08e6	9.23e5	9.99e5	1.15e6	inactive
CG32206 (GeneID 40105)	DRSC10094	2.87e5	1.95e5	2.75e6	2.29e6	inactive
CG32206 (GeneID 40105)	DRSC10095	1.99e5	1.38e5	2.20e6	1.63e6	inactive
CG32206 (GeneID 40105)	DRSC10096	2.97e5	2.71e5	1.60e6	2.20e6	inactive
CG32206 (GeneID 40105)	DRSC11080	2.28e5	2.49e5	2.46e6	2.36e6	inactive
sced (GeneID 35564)	DRSC04990	8.23e5	7.40e5	1.68e6	1.51e6	inactive
Uba2 (GeneID 44496)	DRSC11311	2.59e5	2.54e5	3.27e6	2.82e6	inactive
CG17601 (GeneID 33143)	DRSC20639	2.11e5	1.69e5	6.06e5	4.48e5	inactive
CG12995 (GeneID 32707)	DRSC19515	2.95e5	2.89e5	3.28e6	3.41e6	inactive
CG12995 (GeneID 32707)	DRSC27519	2.64e5	2.58e5	5.37e5	8.79e5	inactive
CG40045 (GeneID 3355079)	DRSC21232	8.77e5	5.95e5	1.48e6	1.16e6	inactive
CG1275 (GeneID 38286)	DRSC08294	8.64e5	1.08e6	1.50e6	1.43e6	inactive
Tim13 (GeneID 39327)	DRSC09848	2.97e5	2.53e5	3.54e6	2.69e6	inactive
l(2)k10201 (GeneID 48373)	DRSC06439	4.57e5	3.37e5	2.53e6	1.93e6	inactive
l(2)k10201 (GeneID 48373)	DRSC07640	4.22e5	2.10e5	1.83e6	1.56e6	inactive
Nrt (GeneID 39873)	DRSC11237	31674	27107	5.19e5	3.19e5	inactive
Mccc1 (GeneID 43750)	DRSC15417	1.16e5	1.06e5	1.02e6	8.06e5	inactive
Mccc1 (GeneID 43750)	DRSC27491	3.40e5	2.76e5	5.09e5	3.82e5	inactive
Rpn3 (GeneID 35176)	DRSC03318	1.64e5	1.51e5	1.92e6	1.43e6	inactive
Rpn3 (GeneID 35176)	DRSC29446	2.83e5	3.95e5	5.43e5	5.43e5	inactive
